The campaign covered roughly 400,000 compounds. About 5,500 (1.4%) were called active. Inconclusive means that the source gave no clear call. Such entries were picked first, then a sample of the others. The call rests on the fitted dose curve; in most records, active means well fitted cell-killing curve with a large enough effect; inconclusive means small, poorly fitted or top-dose-only effect, or effect the other way; inactive means flat fitted curve, though single readings scatter. Potencies beside an inconclusive call are fits to weak or partial responses and may not hold up.
Assay: qHTS assay for MDR1-selective chemotherapeutics: Primary screen using the parental adenocarcinoma cell KB-3-1; further: nearly all actives have a fitted effect of over 60% in size
Conditions: KB-3-1 viability, CellTiter-Glo ATP luminescence, 72 h; activity change, negative = cytotoxic: at 46.1 µM (top of the series)
In short: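 Here the drug-naive KB-3-1 line serves as comparator for MDR sub-line selectivity; cells received compound titrations, 72 h at 37 °C, then CellTiter-Glo readout.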
With CCOCCCNC1=C(Cl)C(=O)c2ccccc2C1=O the Potency was inconclusive: 16.4 µM [cytotoxic, single point].
For COc1ccc(CCn2c(=S)[nH]c3cc(C(=O)NCc4ccco4)ccc3c2=O)cc1OC, the Potency was active: 16.4 µM.
For CC(=O)c1cnc2c(-c3ccccc3)cnn2c1C, the Potency was inconclusive: 16.4 µM [cytotoxic, single point].
In the case of CC1=NN(c2ccc(C)c(C)c2)C(=O)/C1=C\C=C\c1ccc([N+](=O)[O-])o1, the Potency was inconclusive: 25.9 µM [cytotoxic, partial curve, poor fit].
In the case of CCOc1ccc(C)cc1S(=O)(=O)n1cnc2ccccc21, the Potency was active: 13 µM.
In the case of Cc1ccc(OCC(=O)N2CCN(C(=O)Cc3ccccc3)CC2)cc1, the “activity change, negative = cytotoxic” value was inactive: 3.48%.
For CN1C(=O)C(O)(CC(=O)c2ccccc2O)c2cc(Br)ccc21 (stereo unspecified), the Potency was inconclusive: 25.9 µM [cytotoxic, single point].
With c1ccc2ncccc2c1 the Potency was inconclusive: 29.1 µM [cytotoxic, single point].
In the case of CSc1nn(Cc2ccccc2C)c(NC(C)=O)c1S(=O)(=O)c1ccc(C)cc1, the “activity change, negative = cytotoxic” value was inactive: -6.59%.
With COc1cc2c(cc1OC)CN(C(=O)c1oc3ccccc3c1C)CC2 the Potency was inconclusive: 16.4 µM [cytotoxic, single point].
In the case of O=C(CN1CCN(C(=O)C2CCCO2)CC1)Nc1ccc(F)cc1 (stereo unspecified), the “activity change, negative = cytotoxic” value was inactive: 3.27%.
With CCN(CC)CCNc1ccc(CO)c2oc3ccccc3c(=O)c12 the Potency was inconclusive: 29.1 µM [cytotoxic, single point].
In the case of COc1ccc(OC)c(NC(=O)c2nc(S(=O)(=O)Cc3ccccc3)ncc2Cl)c1, the Potency was active: 4.11 µM.
For Nc1nc(-c2ccccc2Cl)cs1, the activity change, negative = cytotoxic was inconclusive: -20%.
For COc1ccc(NS(=O)(=O)c2cc(N/C(=N\S(=O)(=O)c3ccccc3)c3ccc(F)cc3)ccc2Cl)cc1, the Potency was active: 20.6 µM.
For O=C(C[n+]1cccc(Br)c1)c1cc(Cl)ccc1Cl, the Potency was inconclusive: 0.517 µM [rising, full curve, poor fit].
For CCc1nc(SCC(=O)N2CCCc3ccccc32)c2oc3ccccc3c2n1, the Potency was inconclusive: 20 µM [cytotoxic, single point].
For CCCCc1cc(O)c(CCCC)c(O)c1, the Potency was inconclusive: 25.9 µM [cytotoxic, single point].
For O=C(C(=O)c1cccnc1)c1cccnc1, the “activity change, negative = cytotoxic” value was inactive: 0.461%.
In the case of S=c1nc(-c2ccccc2)oc2c1CCCC2, the “activity change, negative = cytotoxic” value was inactive: 4.59%.
With CCOc1ccc(Br)cc1C1=CC(=O)C[C@H](c2ccc(OC)cc2)C1 the Potency was active: 5.8 µM.
For COc1ccc(CONS(=O)(=O)c2ccc(NC(C)=O)cc2)cc1Cl, the Potency was inconclusive: 32.6 µM [cytotoxic, partial curve, poor fit].
With CCOc1ccccc1C(=O)Nc1ccccc1-c1ccccc1 the Potency was inconclusive: 29.1 µM [cytotoxic, single point].
In the case of CN(Cc1ccco1)c1ncnc2ccc(-c3ccccc3Cl)cc12, the Potency was inconclusive: 16.4 µM [cytotoxic, single point].
In the case of CC(=O)OC1(C(C)=O)CCC2C3CC(Cl)C4=CC(=O)CCC4(C)C3CCC21C (stereo unspecified), the Potency was inconclusive: 29.1 µM [cytotoxic, single point].
For Cc1nnc(SCC(=O)Nc2cccc(S(=O)(=O)N(C)c3ccccc3)c2)s1, the “activity change, negative = cytotoxic” value was inactive: 1.9%.
With CCOc1ccc(CCNC(=O)c2cc3cc4cc(OC)ccc4nc3s2)cc1OCC the Potency was inconclusive: 0.82 µM [cytotoxic, full curve].
For Cc1[nH]n(-c2ccccc2)c(=O)c1/C=N/NC(=O)c1ccc(O)cc1O, the activity change, negative = cytotoxic was inconclusive: 3.47%.
For CC1=NN(c2ccccc2)C(=O)C1C(=O)c1ccc(Cl)cc1 (stereo unspecified), the Potency was inconclusive: 29.1 µM [cytotoxic, single point].
For C[C@@H]1CN([C@@H](C)CO)C(=O)CCCn2nncc2CO[C@@H]1CN(C)C(=O)CCC(F)(F)F, the “activity change, negative = cytotoxic” value was inactive: -2.2%.
For CCOc1ccccc1NC(=O)C(=O)c1cc(C)n(-c2cccc(C)c2C)c1C, the “activity change, negative = cytotoxic” value was inactive: -1.44%.
With C=CCn1c(=O)c2ccccc2n2c(SCC(=O)NCC)nnc12 the “activity change, negative = cytotoxic” value was inactive: -0.0806%.
For COC(=O)C1CC23C=CCN4CCC5(c6ccccc6NC15C2C)C43 (stereo unspecified), the Potency was active: 1.03 µM.
For Cc1cccc(NC(=O)C2CCN(S(=O)(=O)c3ccc4[nH]c5c(c4c3)CCCCC5)CC2)c1, the Potency was inconclusive: 16.4 µM [cytotoxic, partial curve, poor fit].
For COc1c(Cl)cc(C(=O)O)cc1Cl, the “activity change, negative = cytotoxic” value was inactive: 0%.
For COc1cc2c(c(OC)c1OC)-c1ccc(SC)c(=O)cc1C(NC(=O)c1ccccc1)CC2 (stereo unspecified), the Potency was active: 0.0092 µM.
In the case of CCCc1cc(=O)oc2cc(OC(C)C(=O)NCC3CCC(C(=O)O)CC3)c(Cl)cc12 (stereo unspecified), the activity change, negative = cytotoxic was inconclusive: -10.5%.
In the case of O=C(Nc1ccc(-n2cccn2)cc1)C1CCCCN1Cc1cccc2cccnc12 (stereo unspecified), the Potency was inconclusive: 29.1 µM [cytotoxic, single point].
In the case of CCOC(=O)C1(Cc2ccccc2C)CCCN(C(=O)c2ccnn2C)C1 (stereo unspecified), the Potency was inconclusive: 29.1 µM [rising, single point].
In the case of Cc1ccc(-c2nnc(N3CCN(C(=O)COc4cccc(C)c4)CC3)c3ccccc23)cc1, the Potency was inconclusive: 5.17 µM [cytotoxic, full curve].
For CCOC(=O)c1c(NC(=O)C[n+]2ccc(N(C)C)cc2)sc(C)c1C, the Potency was inconclusive: 20.6 µM [cytotoxic, partial curve, poor fit].
With Cc1ccc2c(C)ccc(O)c2n1 the Potency was inconclusive: 20.6 µM [cytotoxic, single point].
For OC(COCC(F)(F)C(F)(F)C(F)(F)C(F)F)Cn1c2ccc(Cl)cc2c2cc(Cl)ccc21 (stereo unspecified), the Potency was inconclusive: 20.6 µM [cytotoxic, single point].
For CC(=O)c1c(C)[nH]c(C2=NNC(=NC(C)(C)C)SC2)c1C, the “activity change, negative = cytotoxic” value was inactive: -0.424%.
For O=C1NC(=S)S/C1=C\C=C\c1ccc([N+](=O)[O-])o1, the Potency was inconclusive: 3.26 µM [cytotoxic, full curve, poor fit].
In the case of O=C(CSc1nccn(-c2ccc(F)c(F)c2)c1=O)NC1CCCC1, the Potency was inconclusive: 14.6 µM [rising, partial curve].
In the case of Cc1cc(C(=O)N/N=C/c2ccc(O)c(O)c2O)c(C)n1-c1ccccc1, the Potency was inconclusive: 18.4 µM [cytotoxic, single point].
For O=C(CSc1ncc(-c2ccccc2)n1CC1CCCO1)N1CCCCC1 (stereo unspecified), the Potency was inconclusive: 32.6 µM [cytotoxic, single point].
In the case of Cc1cnc(C(=O)OCC(=O)Nc2cc(-c3ccccc3)nn2-c2ccccc2)cn1, the activity change, negative = cytotoxic was inconclusive: 38%.
For COc1ccc(NC(=S)Nc2ccc(S(=O)(=O)N3CCOCC3)cc2)c(OC)c1, the Potency was inconclusive: 18.4 µM [cytotoxic, single point].
For O=C(c1cc(COc2ccc3ncccc3c2)on1)N1CCCC(O)C1 (stereo unspecified), the Potency was inconclusive: 7.31 µM [cytotoxic, partial curve].

From PubChem BioAssay AID1347075 (National Center for Advancing Translational Sciences (NCATS), 2019)
On the % scale 0 is the no-effect control and ±100 the full control effect; potency means the concentration at half of the fitted maximal effect.
